Experimental data as given in PubChem BioAssay AID1347075 (National Center for Advancing Translational Sciences (NCATS), 2019).
In all, about 400,000 compounds went through this assay and about 5,500 (1.4%) were called active. The shares of active, inactive and inconclusive entries below differ from those in the screen. Calls come from the whole dose curve; as a rule, active = well fitted cell-killing curve with a large enough effect; inconclusive = small, poorly fitted or top-dose-only effect, or effect the other way; inactive = flat fitted curve, though single readings scatter. Potencies beside an inconclusive call are fits to weak or partial responses and may not hold up.

test: qHTS assay for MDR1-selective chemotherapeutics: Primary screen using the parental adenocarcinoma cell KB-3-1; settings: KB-3-1 viability, CellTiter-Glo ATP luminescence, 72 h; activity change, negative = cytotoxic: at 46.1 µM (top of the series); note: nearly all actives have a fitted effect of over 60% in size
Procedure, shortened: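 Multi-concentration cytotoxicity screen in KB-3-1 cells grown in DMEM lacking phenol red with 10% FBS. After 72 h at 37 °C with compound, ATP-dependent luminescence was recorded.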
% is set by controls: 0 for no effect and ±100 for the full control effect; potency is the fitted concentration of half-maximal effect.

| Compound | Potency | activity change, negative = cytotoxic |
| --- | --- | --- |
| Cc1ccc(Oc2ccc(S(=O)(=O)NCC(C)(C)N3CCOCC3)cc2)cc1 | inconclusive: 23.1 µM [cytotoxic, single point] |  |
| CC(C)(C)c1ccc(Cn2c(=O)cnc3ccccc32)cc1 | inconclusive: 16.4 µM [cytotoxic, single point] |  |
| COc1cc(/C=N/NC(=O)c2ccncc2)ccc1OC(=O)c1ccccc1Cl | inconclusive: 20.6 µM [rising, single point] |  |
| Cc1ccc(CSc2nnc(-c3cccc(S(=O)(=O)N4CCOCC4)c3)n2CC(C)C)cc1 | active: 23.1 µM |  |
| Cc1ccc(NC(=O)COC(=O)COc2cccc3c2OC(C)(C)C3)c(C)c1 | inactive |  |
| CCCCC(=O)Nc1ccc(C(=O)NNC(=O)c2ccco2)cc1 | inactive |  |
| O=C(/C=C/c1ccccc1[N+](=O)[O-])N1CCCCC1 | inactive |  |
| O=C1C2C3C=CC(C3)C2C(=O)N1/N=C/c1cn(Cc2ccccc2)c2ccccc12 (stereo unspecified) | inconclusive: 29.1 µM [cytotoxic, single point] |  |
| Cc1ccc(C)c(N2CCN(C(=O)CCCN3C(=S)NC(C)(C)CC3C)CC2)c1 (stereo unspecified) | active: 20.6 µM |  |
| Cc1ccc2nc(-c3ccncc3)cc(C(=O)Nc3ccc(OC(F)F)cc3)c2c1 | inconclusive: 16.4 µM [cytotoxic, single point] |  |
| CC(=O)Nc1ccc(NC(=O)c2cc(C)nn2-c2ccccc2)cc1 | inactive |  |
| COc1ccc(/C=N/N2CCN(C)CC2)c(OC)c1OC | inactive |  |
| CCOc1ccc(C2=Nn3c(nnc3-c3ccc(OC)cc3)SC2)cc1 | active: 2.91 µM |  |
| COC(=O)C1=C(C)NC(C)=C(C(=O)OCC(C)C)C1c1ccccc1[N+](=O)[O-] (stereo unspecified) | inactive |  |
| CC(C)(C)NC(=O)C(c1cccc2ccccc12)n1c(=O)c(-c2cc3ccccc3[nH]2)nc2ccccc21 (stereo unspecified) | inactive |  |
| CC(c1ccccc1)N1CCN(C(=O)CCl)CC1 (stereo unspecified) | inconclusive: 16.4 µM [cytotoxic, single point] |  |
| CCOc1ccc(CNC(=O)c2ccc3nc(CC)c(CC)nc3c2)cc1 | inactive |  |
| CCCCN(CCC(=O)O)c1ccc(/C=C/c2ccnc3ccccc23)cc1 | inconclusive: 18.4 µM [cytotoxic, partial curve, poor fit] |  |
| CN(Cc1c(C(=O)N/N=C/c2cccc(F)c2)nnn1-c1nonc1N)c1ccccc1 |  | inconclusive: 1.39% |
| COc1ccc(OC)c(NC(=O)CSc2ncnc3c2cnn3-c2ccccc2Cl)c1 | inconclusive: 13 µM [cytotoxic, partial curve] |  |
| Cc1oc2c(cc(NS(=O)(=O)c3ccc(C(C)C)cc3)c3ccccc32)c1C(=O)O | inactive |  |
| COc1cc(CN2CC(=O)N(c3cccc(Cl)c3C)C2=S)cc(OC)c1OC | inconclusive: 14.6 µM [cytotoxic, single point] |  |
| CCc1ccc2[nH]c(=O)c(CN(Cc3ccccc3)Cc3nnnn3Cc3ccco3)cc2c1 | inconclusive: 20.6 µM [cytotoxic, single point] |  |

| Compound | Potency | activity change, negative = cytotoxic |
| --- | --- | --- |
| Cc1ccc(S(=O)(=O)Nc2cc(C)cn(Cc3ccccc3)c2=O)cc1 | inconclusive: 16.4 µM [cytotoxic, partial curve, poor fit] |  |
| Cc1ccc(C)c(N2CCN(C(=O)CCS(=O)(=O)c3cc4c(cc3Cl)NC(=O)CO4)CC2)c1 | inconclusive: 29.1 µM [cytotoxic, single point] |  |
| COc1cccc(CCNC(=O)c2cc(COc3ccc(C)c(C)c3)on2)c1OC | inconclusive: 13 µM [rising, single point] |  |
| CCCSc1nnc2c(n1)OC(c1ccc(Br)s1)Nc1ccccc1-2 (stereo unspecified) | inactive |  |
| COc1ccccc1CNc1ncnc2sccc12 | inconclusive: 2.06 µM [cytotoxic, full curve] |  |
| COc1ccc(CCNC(=O)CSc2cn(CCNC(=O)c3cccc(C(F)(F)F)c3)c3ccccc23)cc1OC | inactive |  |
| O=C(Nc1cc(C(F)(F)F)ccc1-n1cncn1)c1ccc([N+](=O)[O-])o1 | active: 20.6 µM |  |
| CC(=O)Oc1ccc2nonc2c1OC(C)=O | inconclusive: 2.59 µM [rising, full curve, poor fit] |  |
| Cc1ccc(-n2nnnc2-c2ccccc2)cc1 | inconclusive: 23.1 µM [cytotoxic, partial curve, poor fit] |  |
| CC1CC(C)CN(S(=O)(=O)c2ccc(NC(=O)C3CSC4(C)CCC(=O)N34)cc2)C1 (stereo unspecified) | inconclusive: 18.4 µM [cytotoxic, single point] |  |
| Cc1c(Br)c([N+](=O)[O-])nn1CCCC(=O)Nc1sc2c(c1C(N)=O)CCC(C)C2 (stereo unspecified) | inconclusive: 29.1 µM [cytotoxic, single point] |  |
| Fc1ccc(NC(=S)N2CCN(C/C=C/c3ccccc3)CC2)c(F)c1 | inconclusive: 18.4 µM [cytotoxic, single point] |  |
| CN(C)c1ccc(C2CCc3ccccc3N2C(=O)c2ccccc2)cc1 (stereo unspecified) | inconclusive: 13 µM [cytotoxic, partial curve, poor fit] |  |
| COC(=O)[C@@]1(Cc2ccc(F)cc2)[C@H]2c3cc(C(=O)N4CCCC4)n(Cc4cc(F)cc5c4OCOC5)c3C[C@H]2CN1C(=O)c1ccccc1 | inconclusive: 25.9 µM [cytotoxic, single point] |  |
| Cc1ccc(NC(=O)Cc2coc3ccc(C(C)C)cc23)c(C)c1 | inactive |  |
| Cc1occc1C(=O)N/N=C/c1ccccn1 | inconclusive: 29.1 µM [cytotoxic, single point] |  |
| CCCCSc1nc(N)c(C#N)c(-c2cccs2)c1C#N | inconclusive: 16.4 µM [cytotoxic, single point] |  |
| COc1ccc(Cl)cc1NC(=O)C(C)Sc1n[nH]c(N)n1 (stereo unspecified) | inactive |  |
| Cn1c(SCC(=O)NCCc2ccccc2)ncc(C(=O)Nc2ccc(F)cc2)c1=O | inactive |  |
| CCCCOc1ccc(C2=NC(c3cccs3)=Nc3ccc(CC)cc3N2)cc1 | inactive |  |
| O=C(Nc1cc2c(ccc3ccccc32)oc1=O)C1CCCCC1 | inactive |  |
| O=C(NNc1ncc(C(F)(F)F)cc1Cl)c1c(Cl)cccc1Cl | active: 5.8 µM |  |
| CCN(CC)S(=O)(=O)c1ccc(NC(=O)Nc2cccc(C(F)(F)F)c2)cc1 | active: 9.2 µM |  |

Compounds listed so far that contain bromine:

| Compound | Potency | activity change, negative = cytotoxic |
| --- | --- | --- |
| CCCSc1nnc2c(n1)OC(c1ccc(Br)s1)Nc1ccccc1-2 (stereo unspecified) | inactive |  |
| Cc1c(Br)c([N+](=O)[O-])nn1CCCC(=O)Nc1sc2c(c1C(N)=O)CCC(C)C2 (stereo unspecified) | inconclusive: 29.1 µM [cytotoxic, single point] |  |
